Measured values as given in PubChem BioAssay AID504834 (National Center for Advancing Translational Sciences (NCATS), 2011).
About 22,000 (6.9%) of roughly 320,000 compounds were called active. The shares of active, inactive and inconclusive entries below differ from those in the screen. Calls follow the shape of the dose curve; as a rule, active = well fitted inhibition curve with a large enough effect; inconclusive = small, poorly fitted or top-dose-only effect, or another doubt; inactive = no such curve, though single readings can be large or run the other way. Where the call is inconclusive, the potency comes from a doubtful curve fit.

test: Primary qHTS for delayed death inhibitors of the malarial parasite plastid, 96 hour incubation; settings: P. falciparum luciferase reporter growth; series mostly up to 28.7 µM
Procedure, shortened: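 Readout is luminescence from an integrated firefly luciferase in P. falciparum. Red cells, 2% hematocrit and 0.05% parasitemia final, were cultured with compound through two parasite generations (96 hours) at 37 C, 5% CO2.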
Potency is read from the fitted curve at half-maximal effect.

Compound	Potency
O=S(=O)(c1cccc(F)c1)N1CCCN(c2ccc(C(F)(F)F)cn2)CC1	inconclusive: 8.28 µM [inhibitor, partial curve, poor fit]
COc1ccc2cc(CN(CCc3ccccc3)Cc3nnnn3CC3CCCO3)c(=O)[nH]c2c1 (stereo not drawn)	inactive
O=C(CSc1n[nH]c(=O)[nH]c1=O)NCC1CCCCC1	inconclusive: 0.0522 µM [inhibitor, full curve, poor fit]
COc1cc2c(cc1OC)CN(C(=O)COc1ccccc1C#N)CC2	inconclusive: 9.28 µM [inhibitor, partial curve]
Cn1c(=O)cc(OCCCC(=O)NCc2ccco2)c2ccccc21	active: 11.7 µM
O=C(Nc1nc(-c2ccccn2)cs1)c1cccc(-n2cnnn2)c1	active: 0.928 µM
CCOC(=O)c1ccc(OCCOc2cccc(C)c2)cc1	inconclusive: 16.5 µM [inhibitor, single point]
CC(C)(C)NC(=O)COC(=O)c1ccc(S(=O)(=O)N2CCCCCC2)cc1	inconclusive: 9.28 µM [inhibitor, partial curve]
Cc1cc(Cl)ccc1OCC(=O)N(Cc1cccs1)C1CCS(=O)(=O)C1 (stereo not drawn)	inconclusive: 11.7 µM [inhibitor, single point]
Cc1oc(-c2cccs2)nc1CN1CCN(CCC(C)C)C(CCO)C1 (stereo not drawn)	inconclusive: 16.5 µM [inhibitor, single point]
O=C(NCc1ccccn1)c1nc(-c2ccc(C(F)(F)F)cc2)no1	inconclusive: 1.85 µM [inhibitor, full curve, poor fit]
COc1ccc(CC(=O)Oc2cc(C)[nH]c(=O)c2[N+](=O)[O-])cc1	inactive
CN(C)CCCN(C(=O)c1ccc2c(c1)CCCC2)c1nc2cc3c(cc2s1)OCO3	active: 2.33 µM
COc1ccc(-n2c(=S)[nH]c3ccccc3c2=S)cc1	inactive
O=C(Cn1nnc(-c2ccccc2)n1)N/N=C/c1cccc([N+](=O)[O-])c1	inconclusive: 18.5 µM [inhibitor, single point]
CCC(C)Sc1cccc(-c2nc3ccc(C)cn3c2NCc2ccccc2)c1 (stereo not drawn)	active: 13.1 µM
Cc1ccc(-n2ncc3c2CC(C)(C)CC3NC(=O)c2ccc[n+]([O-])c2)cc1 (stereo not drawn)	inconclusive: 11.7 µM [inhibitor, single point]
Cc1ccc(C(=O)NCc2ccc(Cl)cc2)cc1S(=O)(=O)N1CCCCC1	inconclusive: 10.4 µM [inhibitor, single point]
COc1ccc(-c2ccc(OC)c([C@H]3[C@H]4C=CC[C@@H](C)[C@@H]4C(=O)N3Cc3ccccc3)c2)cc1OC	inconclusive: 5.86 µM [inhibitor, partial curve]
CN1C[C@@H]2C(c3ccc(C(F)(F)F)cc3)C3(c4ccccc4)CC2(C3)[C@H]1c1ccccc1 (stereo partly drawn)	inconclusive: 18.5 µM [inhibitor, single point]
Cc1ccc(-c2[nH]ncc2CNCCc2cnn(-c3ccccc3)c2)cc1C	inconclusive: 0.0928 µM [inhibitor, full curve, poor fit]
Cc1ccc(O)c(NC(=O)c2noc3c2CCc2ccccc2-3)c1	active: 9.28 µM

Compound	Potency
O=C(CCN1C(=O)c2ccccc2S1(=O)=O)NCc1ccccc1Cl	inactive
O=C(Nc1cc(Br)ccc1O)C1CC(c2ccccc2Cl)=NO1 (stereo not drawn)	inconclusive: 16.5 µM [inhibitor, single point]
CCCCn1c(SC(C)C(=O)NCC2CCCO2)nc2cc(C(=O)OC)ccc2c1=O (stereo not drawn)	active: 8.28 µM
Cc1onc(-c2c(Cl)cccc2Cl)c1C(=O)N1CCc2ccccc2C1	active: 7.38 µM
COc1ccc(-c2[nH]ncc2CN2CCN(C(=O)c3cccs3)CC2)c(F)c1	inconclusive: 6.57 µM [inhibitor, partial curve, poor fit]
CC1(C)CC2CC(C)(CN2C(=O)C23CCC(C)(C(=O)O2)C3(C)C)C1 (stereo not drawn)	inconclusive: 18.5 µM [inhibitor, single point]
CCN1CCN(CCCNC(=O)CN2C(=O)c3cccnc3Oc3ccc(Cl)cc32)CC1	inconclusive: 4.15 µM [inhibitor, single point]
Cc1ccccc1-c1nnn(CC(=O)c2ccc(S(=O)(=O)N3CCCC3)cc2)n1	inconclusive: 9.28 µM [inhibitor, single point]
CCN(CC(=O)NCc1cccs1)C(=O)CCCOc1ccc(C(C)(C)C)cc1	inconclusive: 18.5 µM [inhibitor, single point]
CCOC(=O)C1C(=O)CC(C)(O)C(C(=O)OCC)C1c1ccc([N+](=O)[O-])cc1 (stereo not drawn)	inconclusive: 4.15 µM [inhibitor, partial curve]
CC(=O)OCC1OC(Nc2cccc(C)c2)C(OC(C)=O)C(OC(C)=O)C1OC(C)=O (stereo not drawn)	inactive
Cc1nc(-c2ccccn2)nc(SCC(=O)c2ccccc2)c1Cl	active: 5.22 µM
CN(C)C(CNC(=O)Cc1cccc(C(F)(F)F)c1)c1ccco1 (stereo not drawn)	inconclusive: 13.1 µM [inhibitor, partial curve, poor fit]
Cc1ccccc1N=C1c2cc([N+](=O)[O-])ccc2-c2ncccc21	inconclusive: 1.04 µM [inhibitor, partial curve, poor fit]
Cc1ccc(NC(=O)CSCC(=O)Nc2cc(Cl)ccc2N2CCOCC2)cc1	inactive
CCCCn1cnc2c(oc3ccccc32)c1=O	inconclusive: 18.5 µM [inhibitor, single point]
COc1ccccc1CNc1ncccn1	inactive
CCN(CC)C(=O)CSc1nc2sc3c(c2c(=O)n1CCOC)CCC3	inconclusive: 18.5 µM [inhibitor, single point]
CCOCCCNC(=O)C(c1ccc(OC)cc1)N(Cc1cccs1)C(=O)CNC(C)=O (stereo not drawn)	inconclusive: 18.5 µM [inhibitor, single point]
c1ccc(OCCCn2nnc(-c3ccc(N4CCOCC4)cc3)n2)cc1	inconclusive: 0.415 µM [inhibitor, partial curve, poor fit]

Arranged by heavy-atom count (low to high): part of the list above.
Compound	Potency
O=C(Nc1cc(Br)ccc1O)C1CC(c2ccccc2Cl)=NO1 (stereo not drawn)	inconclusive: 16.5 µM [inhibitor, single point]
CC1(C)CC2CC(C)(CN2C(=O)C23CCC(C)(C(=O)O2)C3(C)C)C1 (stereo not drawn)	inconclusive: 18.5 µM [inhibitor, single point]
CCN(CC)C(=O)CSc1nc2sc3c(c2c(=O)n1CCOC)CCC3	inconclusive: 18.5 µM [inhibitor, single point]
